Laboratory results as given in patent publication US20220365087A1, “METHOD FOR ACQUIRING DATA FOR DISTINGUISHING PRESENCE OF CANCER CELLS AND/OR DISTINGUISHING ANTICANCER DRUG RESISTANCE, METHOD FOR ACQUIRING PREDICTION DATA, USE OF DISTINCTION MARKER IN SAME, AND DISTINGUISHING KIT” (KEIO UNIVERSITY, priority 2019, published 2022).

Test: Surface enhanced Raman spectroscopy (SERS) of gemcitabine with Na2S3 or Na2S4
Settings: for SERS peak (456 cm^−1) yielded by Na2S3 or Na2S4: 100 μM Na2S3 or Na2S4 added to gemcitabine

Nc1ccn([C@@H]2O[C@H](CO)[C@@H](O)C2(F)F)c(=O)n1 [gemcitabine]
major SERS peak of gemcitabine (435 cm^−1) (addition of 100 μM Na2S3 or Na2S4 to gemcitabine): disappearance of the one peak

[Na+].[Na+].[S-]S[S-] [Na2S3]
SERS peak (456 cm^−1) yielded by Na2S3 or Na2S4: disappearance of the peak

[Na+].[Na+].[S-]SS[S-] [Na2S4]
SERS peak (456 cm^−1) yielded by Na2S3 or Na2S4: disappearance of the peak
